Laboratory results reported in doi:10.1101/843326.
Results are given in words; binding and its absence hold for the method and conditions named. In cells and extracts the contact can be indirect. A result given as binding can be weak or reduced; the word gives no strength.

Key:
[1] = target: WRB (K164L)-HA-NFT-Venus (UniProt O00258); experiment: co-IP
[2] = target: WRB (K164D)-HA-NFT-Venus (UniProt O00258); experiment: co-IP

“Hrd1 E3 ligase (from UniProt Q86TM6 1-617) (enzyme)” was tested, and the binding [1] was “no binding” and the binding [2] was “binds”.

In the case of BiP (from UniProt P11021 19-654), the binding [1] is reported as “binds weakly” and the binding [2] is reported as “binds”.
